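A panel of P. falciparum strains inside erythrocytes is exposed to compounds for three days, then a DNA-binding dye reports the amount of parasite DNA. Each compound was titrated across a series from about 0.000037 to 29 µM. The number is the fitted AC50, the concentration giving a half-maximal change in signal; a lower value means higher potency, whether the curve shows a decrease or an increase. Calls follow the curve class and fit quality: every row here is inconclusive, covering signal-raising curves and weak, poorly fitted, partial or highest-dose-only inhibition curves.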

Values are in nM. Every entry below has the call inconclusive. These entries are mostly ones the record files as inconclusive; other results of the assay are not listed here. Potencies fitted to partial, single-point or poorly fitting curves are rough.

| # | structure | tested on / at | Potency (nM) | curve |
|---|---|---|---|---|
| 1 | `O=C(c1ccc(OCCN2CCCCC2)cc1)c1c(-c2ccc(O)cc2)sc2cc(O)ccc12` | CP269 | 11995 | inhibitor, single point |
| 2 | `O=C(c1ccc(OCCN2CCCCC2)cc1)c1c(-c2ccc(O)cc2)sc2cc(O)ccc12` | ATS95 | 10000 | inhibitor, single point |
| 3 | `O=C(c1ccc(OCCN2CCCCC2)cc1)c1c(-c2ccc(O)cc2)sc2cc(O)ccc12` | FAB9 | 17782 | inhibitor, single point |
| 4 | `O=C(c1ccc(OCCN2CCCCC2)cc1)c1c(-c2ccc(O)cc2)sc2cc(O)ccc12` | CP185 | 10000 | inhibitor, single point |
| 5 | `O=C(c1ccc(OCCN2CCCCC2)cc1)c1c(-c2ccc(O)cc2)sc2cc(O)ccc12` | CP256 | 12589 | inhibitor, single point |
| 6 | `O=C(c1ccc(OCCN2CCCCC2)cc1)c1c(-c2ccc(O)cc2)sc2cc(O)ccc12` | DFO2036 | 17782 | inhibitor, single point |
| 7 | `O=C(c1ccc(OCCN2CCCCC2)cc1)c1c(-c2ccc(O)cc2)sc2cc(O)ccc12` | PC26 | 11995 | inhibitor, single point |
| 8 | `O=C(c1ccc(OCCN2CCCCC2)cc1)c1c(-c2ccc(O)cc2)sc2cc(O)ccc12` | CP238 | 11220 | inhibitor, single point |
| 9 | `O=C(c1ccc(OCCN2CCCCC2)cc1)c1c(-c2ccc(O)cc2)sc2cc(O)ccc12` | CP217 | 10000 | inhibitor, single point |
| 10 | `O=C(c1ccc(OCCN2CCCCC2)cc1)c1c(-c2ccc(O)cc2)sc2cc(O)ccc12` | PC15 | 11220 | inhibitor, single point |
| 11 | `O=C(c1ccc(OCCN2CCCCC2)cc1)c1c(-c2ccc(O)cc2)sc2cc(O)ccc12` | CP250 | 17782 | inhibitor, single point |
| 12 | `O=C(c1ccc(OCCN2CCCCC2)cc1)c1c(-c2ccc(O)cc2)sc2cc(O)ccc12` | CP194 | 19011 | inhibitor, single point |
| 13 | `O=C(c1ccc(OCCN2CCCCC2)cc1)c1c(-c2ccc(O)cc2)sc2cc(O)ccc12` | CP211 | 16944 | inhibitor, single point |
| 14 | `O=C(c1ccc(OCCN2CCCCC2)cc1)c1c(-c2ccc(O)cc2)sc2cc(O)ccc12` | ATS189 | 11220 | inhibitor, single point |
| 15 | `O=C(c1ccc(OCCN2CCCCC2)cc1)c1c(-c2ccc(O)cc2)sc2cc(O)ccc12` | ECU | 10000 | inhibitor, single point |
| 16 | `O=C(c1ccc(OCCN2CCCCC2)cc1)c1c(-c2ccc(O)cc2)sc2cc(O)ccc12` | JCK | 11220 | inhibitor, single point |
| 17 | `O=C(c1ccc(OCCN2CCCCC2)cc1)c1c(-c2ccc(O)cc2)sc2cc(O)ccc12` | CP265 | 17782 | inhibitor, single point |
| 18 | `O=C(c1ccc(OCCN2CCCCC2)cc1)c1c(-c2ccc(O)cc2)sc2cc(O)ccc12` | PC49 | 10000 | inhibitor, single point |
| 19 | `O=C(c1ccc(OCCN2CCCCC2)cc1)c1c(-c2ccc(O)cc2)sc2cc(O)ccc12` | CP305 | 16944 | inhibitor, single point |
| 20 | `O=C(c1ccc(OCCN2CCCCC2)cc1)c1c(-c2ccc(O)cc2)sc2cc(O)ccc12` | CP291 | 16944 | inhibitor, single point |
| 21 | `O=C(c1ccc(OCCN2CCCCC2)cc1)c1c(-c2ccc(O)cc2)sc2cc(O)ccc12` | CP329 | 19011 | inhibitor, single point |
| 22 | `CN(C)CCOC(c1ccc(Cl)cc1)c1ccccn1` (centres undefined) | P94_40 | 3981 | inhibitor, partial curve, poor fit |
| 23 | `CN(C)CCOC(c1ccc(Cl)cc1)c1ccccn1` (centres undefined) | TAB165 | 7943 | inhibitor, partial curve |
| 24 | `CN(C)CCOC(c1ccc(Cl)cc1)c1ccccn1` (centres undefined) | TAB109 | 7943 | inhibitor, partial curve |
| 25 | `CN(C)CCOC(c1ccc(Cl)cc1)c1ccccn1` (centres undefined) | CP305 | 6746 | inhibitor, partial curve |
| 26 | `CN(C)CCOC(c1ccc(Cl)cc1)c1ccccn1` (centres undefined) | ICS | 4467 | inhibitor, partial curve |
| 27 | `CN(C)CCOC(c1ccc(Cl)cc1)c1ccccn1` (centres undefined) | P93_24 | 11220 | inhibitor, partial curve |
| 28 | `CN(C)CCOC(c1ccc(Cl)cc1)c1ccccn1` (centres undefined) | CP260 | 8912 | inhibitor, partial curve |
| 29 | `CN(C)CCOC(c1ccc(Cl)cc1)c1ccccn1` (centres undefined) | SC27B | 5012 | inhibitor, partial curve, poor fit |
| 30 | `CN(C)CCOC(c1ccc(Cl)cc1)c1ccccn1` (centres undefined) | CP268 | 6012 | inhibitor, partial curve |
| 31 | `CN(C)CCOC(c1ccc(Cl)cc1)c1ccccn1` (centres undefined) | ATS189 | 5012 | inhibitor, partial curve |
| 32 | `CN(C)CCOC(c1ccc(Cl)cc1)c1ccccn1` (centres undefined) | ATS95 | 7080 | inhibitor, partial curve |
| 33 | `CN(C)CCOC(c1ccc(Cl)cc1)c1ccccn1` (centres undefined) | parasite line B | 17782 | inhibitor, single point |
| 34 | `CN(C)CCOC(c1ccc(Cl)cc1)c1ccccn1` (centres undefined) | CP201 | 21331 | inhibitor, partial curve, poor fit |
| 35 | `CN(C)CCOC(c1ccc(Cl)cc1)c1ccccn1` (centres undefined) | GB4 | 3381 | inhibitor, partial curve, poor fit |
| 36 | `CN(C)CCOC(c1ccc(Cl)cc1)c1ccccn1` (centres undefined) | DIV30 | 4776 | inhibitor, partial curve |
| 37 | `CN(C)CCOC(c1ccc(Cl)cc1)c1ccccn1` (centres undefined) | CP238 | 8912 | inhibitor, partial curve |
| 38 | `CN(C)CCOC(c1ccc(Cl)cc1)c1ccccn1` (centres undefined) | CP217 | 7080 | inhibitor, partial curve |

4 of the entries, repeated:

- O=C(c1ccc(OCCN2CCCCC2)cc1)c1c(-c2ccc(O)cc2)sc2cc(O)ccc12 [CP194] | Potency 19011 nM (inhibitor, single point)
- O=C(c1ccc(OCCN2CCCCC2)cc1)c1c(-c2ccc(O)cc2)sc2cc(O)ccc12 [PC15] | Potency 11220 nM (inhibitor, single point)
- O=C(c1ccc(OCCN2CCCCC2)cc1)c1c(-c2ccc(O)cc2)sc2cc(O)ccc12 [CP250] | Potency 17782 nM (inhibitor, single point)
- O=C(c1ccc(OCCN2CCCCC2)cc1)c1c(-c2ccc(O)cc2)sc2cc(O)ccc12 [ATS95] | Potency 10000 nM (inhibitor, single point)

From PubChem BioAssay record AID504749 (NCATS, 2011).